Reference: publication PMC9589254, “Disrupting Cu trafficking as a potential therapy for cancer” (Frontiers in Molecular Biosciences, 2022)
These are yes or no findings as the source states them, for the method shown.

Amino acid sequences for entries named in this document (tags omitted).
UniProt P0A9G4: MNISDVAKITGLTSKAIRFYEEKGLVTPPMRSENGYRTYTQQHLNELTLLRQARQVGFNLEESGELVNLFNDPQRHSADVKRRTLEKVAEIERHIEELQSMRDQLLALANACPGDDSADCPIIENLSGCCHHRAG

T1: Atox1, fluorescently labelled (NT-647-NHS) (UniProt O00244)
T1 sequence (chain, red fluorescent NT-647-NHS on lysine residues): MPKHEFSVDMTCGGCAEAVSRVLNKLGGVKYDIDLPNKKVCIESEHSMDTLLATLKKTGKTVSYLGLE

T2: Atox1, fluorescently labelled (NT-647-NHS) (UniProt O00244 1-68, red fluorescent NT-647-NHS on lysine residues)
T2 sequence (looked up): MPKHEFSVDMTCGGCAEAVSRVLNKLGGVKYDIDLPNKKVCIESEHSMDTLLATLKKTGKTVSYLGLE


Columns and labels:
[1] = molecular target: CueR, Escherichia coli copper receptor (Escherichia coli) (UniProt P0A9G4); test: MST; CueR with KER or SMD peptide (Supplementary Figure S6); whether Cu(I) was present is not told; both purified
[2] = molecular target: T1, Atox1, fluorescently labelled (NT-647-NHS); test: MST; without Cu(I); labelled protein 50 nM, peptide titrated; 25 mM Na2HPO4 pH 8, 150 mM NaCl, 0.05% Tween 20; 25 C; Monolith NT.115; both purified
[3] = molecular target: T2, Atox1, fluorescently labelled …; test: as above
[4] = molecular target: T2, Atox1, fluorescently labelled …; test: MST; with Cu(I) 40 uM; labelled protein 50 nM, peptide titrated; 25 mM Na2HPO4 pH 8, 150 mM NaCl, 0.05% Tween 20; 25 C; Monolith NT.115; both purified

| Binder | binding [1] | binding [2] | binding [3] | binding [4] |
| --- | --- | --- | --- | --- |
| SMDMSIE (Made on rink-amide resin, which would give a C-terminal amide; also called SMDMSIE; source: synthetic peptide (Fmoc, rink-amide resin, reverse phase HPLC; 95.1% purity)) [SMD peptide] | no binding | no binding (condition: without Cu(I) (peptide up to 4 mM)) |  |  |
| KERTSR (Made on rink-amide resin, which would give a C-terminal amide; also called KERTSR; source: synthetic peptide (Fmoc, rink-amide resin, reverse phase HPLC; 99.4% purity)) [KER peptide] | no binding | no binding (condition: without Cu(I) (peptide up to 4 mM)) |  |  |
| GAGAAA [control peptide (GAGAAA, termed Ala)] |  |  | no binding (tested: peptide up to 4 mM) | no binding (tested: peptide up to 4 mM) |
